These are yes or no findings as the source states them, for the method shown. For some assays here: In cells and extracts the contact can be indirect. Some results given as binding are weak or reduced against the parent protein; the word gives no strength.

Experimental findings from patent US20160257957A1, “METHODS AND COMPOSITIONS FOR TREATMENT OF ANGELMAN SYNDROME AND AUTISM SPECTRUM DISORDERS” (PRESIDENT AND FELLOWS OF HARVARD COLLEGE, priority 2010, published 2016) are described below.

In experiment [1] the target is T1, Ube3A (endogenous, mouse brain lysate) (mouse), O08759.
T1 chain: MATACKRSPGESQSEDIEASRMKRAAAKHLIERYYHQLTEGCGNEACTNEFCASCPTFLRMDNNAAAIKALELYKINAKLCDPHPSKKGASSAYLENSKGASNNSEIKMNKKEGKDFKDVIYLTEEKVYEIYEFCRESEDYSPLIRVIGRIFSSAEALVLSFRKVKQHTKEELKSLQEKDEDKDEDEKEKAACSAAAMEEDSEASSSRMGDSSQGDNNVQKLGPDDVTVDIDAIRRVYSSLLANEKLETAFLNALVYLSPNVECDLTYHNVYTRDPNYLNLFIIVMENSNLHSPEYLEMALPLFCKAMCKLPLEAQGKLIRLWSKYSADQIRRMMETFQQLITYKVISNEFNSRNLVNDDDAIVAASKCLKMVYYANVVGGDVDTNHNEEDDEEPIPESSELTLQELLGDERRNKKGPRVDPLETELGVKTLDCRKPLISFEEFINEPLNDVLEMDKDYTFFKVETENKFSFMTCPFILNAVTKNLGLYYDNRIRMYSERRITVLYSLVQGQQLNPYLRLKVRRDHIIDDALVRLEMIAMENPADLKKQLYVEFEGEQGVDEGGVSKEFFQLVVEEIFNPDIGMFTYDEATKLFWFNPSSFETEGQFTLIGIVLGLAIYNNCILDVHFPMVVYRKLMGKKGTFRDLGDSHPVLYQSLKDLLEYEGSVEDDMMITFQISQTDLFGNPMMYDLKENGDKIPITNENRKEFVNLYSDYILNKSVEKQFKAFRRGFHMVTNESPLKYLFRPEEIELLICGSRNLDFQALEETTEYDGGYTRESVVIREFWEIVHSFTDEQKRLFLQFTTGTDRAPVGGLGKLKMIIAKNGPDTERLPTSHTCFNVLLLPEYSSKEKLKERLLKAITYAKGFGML
Kind of experiment: anti-Ube3A immunoprecipitation from brain lysates of wild type and Ube3A knockout mice, anti-Arc Western blot. As to conditions: remark: other sources report otherwise.

The target of experiment [2] is T1, Ube3A (endogenous, mouse brain lysate) …. Briefly: co-immunoprecipitation from mouse brain extracts (FIG. 9A). As to conditions: remark: other sources report otherwise.

B1: Arc (endogenous, mouse brain lysate), Q9WV31 1-396 (protein, UniProt Q9WV31 1-396, looked up)
chain: MELDHMTTGGLHAYPAPRGGPAAKPNVILQIGKCRAEMLEHVRRTHRHLLTEVSKQVERELKGLHRSVGKLENNLDGYVPTGDSQRWKKSIKACLCRCQETIANLERWVKREMHVWREVFYRLERWADRLESMGGKYPVGSEPARHTVSVGVGGPEPYCQEADGYDYTVSPYAITPPPAAGELPEQESVEAQQYQSWGPGEDGQPSPGVDTQIFEDPREFLSHLEEYLRQVGGSEEYWLSQIQNHMNGPAKKWWEFKQGSVKNWVEFKKEFLQYSEGTLSREAIQRELELPQKQGEPLDQFLWRKRDLYQTLYVDAEEEEIIQYVVGTLQPKLKRFLRHPLPKTLEQLIQRGMEVQDGLEQAAEPSGTPLPTEDETEALTPALTSESVASDRTQPE
Take B1: the binding result in experiment [1] and in experiment [2] was “binds” each time.
